Library screen at single concentrations

Data taken from ChEMBL document CHEMBL3988442, “University of Dundee, Small-Polar-MMV Screening Library” (2021).

Mtb cholesterol medium: 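Phenotypic screen: M. tuberculosis growth, cholesterol and DPPC medium, 4 days; the read-out is not stated. Compounds at 50 µM. Direction is inferred from retests: higher values go with more growth inhibition. About 69,000 compounds were tested under these conditions; 0.54% (about 370) showed 50% or more at least once.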
Mtb glucose medium: 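Phenotypic screen: M. tuberculosis growth, glucose 7H9 medium, 3 days; the read-out is not stated. Concentration: 50 µM. Direction is inferred from retests: higher values go with more growth inhibition. Of about 69,000 compounds tested this way, about 760 (1.1%) reached 50% or more in at least one test.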

Values are the deposited “Percent Effect”, in %. The controls that fix the scale are not given in the record; negative values are as filed. This is an unselected part of the compounds tested. Two or more numbers in one place are separate tests of the same structure; such repeats can differ widely.

{"smiles": "O=C(C1CCOCC1)N1CC[C@@H](N2CCOCC2)[C@@H]1Cc1ccccc1", "Mtb cholesterol medium": -26.66, "Mtb glucose medium": -31.36}
{"smiles": "c1ccc(C2(CNCc3cnc(N4CCOCC4)nc3)CC2)cc1", "Mtb cholesterol medium": 30.25, "Mtb glucose medium": 9.935}
{"smiles": "COc1ncnc2c1CCN(c1cccc(F)c1)CC2", "Mtb cholesterol medium": 14.12, "Mtb glucose medium": "31.25 and 6.221"}
{"smiles": "[H][C@@]12OCCN(C(=O)C3CCOCC3)[C@@]1([H])CC[C@H]2OC", "Mtb cholesterol medium": -4.778, "Mtb glucose medium": 7.016}
{"smiles": "O=C(NCCN1CCOCC1)C(OC1CCCC1)c1ccccc1", "stereo": "stereo unspecified", "Mtb cholesterol medium": 7.411, "Mtb glucose medium": 12.67}
{"smiles": "Cc1ccc(CCCC(=O)N2CC(=O)Nc3cccnc32)s1", "Mtb cholesterol medium": -0.3991, "Mtb glucose medium": "2.641 and 7.002"}
{"smiles": "Cc1cc(C)n(C2CCCN(C(=O)C3=NN(C)C(=O)CC3)C2)n1", "stereo": "stereo unspecified", "Mtb cholesterol medium": -13.98, "Mtb glucose medium": 14.39}
{"smiles": "CCCc1n[nH]c(C2CN(CCCS(=O)(=O)N(C)C)CCO2)n1", "stereo": "stereo unspecified", "Mtb cholesterol medium": -12.26, "Mtb glucose medium": 10.61}
{"smiles": "CNC(=O)COc1c(F)cc(Br)cc1C(C)=O", "Mtb cholesterol medium": -14.65, "Mtb glucose medium": -4.464}
{"smiles": "Cc1ccc2cc(CNCCN3CCCC3)c(=O)[nH]c2c1", "Mtb cholesterol medium": 15.59, "Mtb glucose medium": 28.96}
{"smiles": "CCC(NC(=O)c1coc(COc2cccc(F)c2F)n1)C(=O)NC", "stereo": "stereo unspecified", "Mtb cholesterol medium": -22.53, "Mtb glucose medium": 9.451}
{"smiles": "Cc1cc(NCCC(=O)NC2CCCC2)nc(-c2ccncc2)n1", "Mtb cholesterol medium": -26.03, "Mtb glucose medium": 0.8916}
{"smiles": "Cc1cc(C)c(C(=O)N2CCOCC2c2c(C)nn(C)c2C)o1", "stereo": "stereo unspecified", "Mtb cholesterol medium": -4.246, "Mtb glucose medium": 12.33}
{"smiles": "CC(C)NC(=O)C[C@@H]1CCNC[C@@H]1Cc1cc(-c2ccccn2)on1", "Mtb cholesterol medium": -18.49, "Mtb glucose medium": "-35 and -8.929"}
{"smiles": "COc1cc(C2CC(=O)Nc3c2c(=O)[nH]n3C2CCCC2)ccc1O", "stereo": "stereo unspecified", "Mtb cholesterol medium": -16.45, "Mtb glucose medium": "20.53 and -11.22"}
{"smiles": "Cc1ccc(CNCc2nnc3n2CCCC3C(F)(F)F)s1", "stereo": "stereo unspecified", "Mtb cholesterol medium": 1.866, "Mtb glucose medium": 4.745}
{"smiles": "CCN1CCN(S(=O)(=O)c2cc(C)c(Cl)cc2Cl)CC1", "Mtb cholesterol medium": -11.55, "Mtb glucose medium": -23.15}
{"smiles": "O=C(Cc1ccccc1F)N1CCC[C@@H]1Cn1c(=O)oc2ccccc21", "Mtb cholesterol medium": "-18.88 and -0.5786", "Mtb glucose medium": -8.829}
{"smiles": "c1nc2n(n1)CC(NCc1nc(-c3ccsc3)no1)CC2", "stereo": "stereo unspecified", "Mtb cholesterol medium": -17.11, "Mtb glucose medium": 17.31}
{"smiles": "NC(=O)CN1CCN(CC2CC2)c2ccccc21", "Mtb cholesterol medium": 9.224, "Mtb glucose medium": 2.709}
{"smiles": "CO[C@@H]1CO[C@@]2(CCCN(S(=O)(=O)c3ccccc3)C2)C1", "Mtb cholesterol medium": -14.48, "Mtb glucose medium": 1.234}
{"smiles": "CC[C@H]1CN(C(=O)c2cnc(N3CCN(C)CC3)nc2C)CC[C@@]1(C)O", "Mtb cholesterol medium": 12.25, "Mtb glucose medium": 14.35}
{"smiles": "Cc1n[nH]cc1CNC(=O)Nc1cccc(OCC(F)(F)F)c1", "Mtb cholesterol medium": 13.07, "Mtb glucose medium": "4.023 and -10.77"}
{"smiles": "CC(C)(C)CNC(=O)c1ccc(C(=O)O)nc1", "Mtb cholesterol medium": -6.303, "Mtb glucose medium": "1.673 and -1.905"}
{"smiles": "CCN(CC)S(=O)(=O)NCc1ccc(-c2ccc(C(N)=O)c(C)n2)cc1", "Mtb cholesterol medium": -25.18, "Mtb glucose medium": -17.02}
{"smiles": "COc1ccc2ccccc2c1CNCC1CCS(=O)(=O)C1.Cl", "stereo": "stereo unspecified", "Mtb cholesterol medium": "5.359 and -6.058", "Mtb glucose medium": -11.99}
{"smiles": "CC(C)(C)CN[C@@H]1CO[C@H](CNC(=O)c2ccncc2)[C@H]1O", "Mtb cholesterol medium": 10.15, "Mtb glucose medium": "-3.054 and 8.035"}
{"smiles": "Cc1cc(NC(=O)C(C#N)Cc2cnn(C)c2C)no1", "stereo": "stereo unspecified", "Mtb cholesterol medium": 9.354, "Mtb glucose medium": "18.05 and 1.559"}
{"smiles": "COc1ccc(CN2CCCCC2c2n[nH]cc2-c2cc(C)no2)cc1.Cl", "stereo": "stereo unspecified", "Mtb cholesterol medium": -12.71, "Mtb glucose medium": -17.08}
{"smiles": "O=C1CC(N(C(=O)Cc2csc(-c3ccccc3)n2)C2CC2)C(=O)N1", "stereo": "stereo unspecified", "Mtb cholesterol medium": 25.12, "Mtb glucose medium": 18.07}
{"smiles": "Cc1cc(NC(=O)CN2CCn3c(nnc3C(C)C)C2)no1", "Mtb cholesterol medium": -25.56, "Mtb glucose medium": -70.89}
{"smiles": "CNC(=O)[C@@H]1C[C@H](n2cc(-c3ccc(CN4CC=CC4)cc3)nn2)CN1", "Mtb cholesterol medium": -66.8, "Mtb glucose medium": "-3.075 and -5.137"}
{"smiles": "CCNc1cc2c(nn1)CCN(C(=O)c1cccc(CSC)c1)C2", "Mtb cholesterol medium": 6.625, "Mtb glucose medium": 30.28}
{"smiles": "OCCOc1cc(F)ccc1NCc1ccc(F)c(F)c1", "Mtb cholesterol medium": 21.49, "Mtb glucose medium": -5.381}
{"smiles": "COCC(=O)N1Cc2nccn2CC(Cn2ncccc2=O)C1", "stereo": "stereo unspecified", "Mtb cholesterol medium": -33.62, "Mtb glucose medium": -28}
{"smiles": "CO[C@@]1(C)C[C@@H](O)C12CCN(C(=O)c1ccccc1C(C)=O)CC2", "Mtb cholesterol medium": 0.05523, "Mtb glucose medium": -13.8}
{"smiles": "Cc1n[nH]c2nc(-c3ccccc3O)cc(C(=O)O)c12", "Mtb cholesterol medium": -2.466, "Mtb glucose medium": 32.42}
{"smiles": "CCC(O)CN1CCN(C(=O)CCc2c(C)noc2Cl)CC1", "stereo": "stereo unspecified", "Mtb cholesterol medium": -15.48, "Mtb glucose medium": -13.67}
{"smiles": "COC(=O)c1cccc(S(=O)(=O)NCc2cccnc2N(C)C)c1", "Mtb cholesterol medium": -5.529, "Mtb glucose medium": -24.58}
{"smiles": "CC(C)N(C)Cc1nnc2n1CCCN(C(=O)C1CCCO1)C2", "stereo": "stereo unspecified", "Mtb cholesterol medium": 15.96, "Mtb glucose medium": "-7.87 and -15.05"}
{"smiles": "CCOC(=O)[C@H]1[C@@H](O)C(=O)N(C)C12CCN(C(=O)C(CC)CC)CC2", "Mtb cholesterol medium": -2.268, "Mtb glucose medium": 0.3124}
{"smiles": "c1cc(NC2CC3(CCN(Cc4cc[nH]n4)C3)C2)ncn1", "stereo": "stereo unspecified", "Mtb cholesterol medium": -9.815, "Mtb glucose medium": 1.74}
{"smiles": "C=C(C)COc1ccccc1CNC(CC)c1ccnn1C", "stereo": "stereo unspecified", "Mtb cholesterol medium": "-8.171 and -5.749", "Mtb glucose medium": -11.22}
{"smiles": "O=C(c1scc2c1OCCO2)N1CCC(Cc2cccc(CO)c2)C1", "stereo": "stereo unspecified", "Mtb cholesterol medium": 6.122, "Mtb glucose medium": 15.04}
{"smiles": "Cc1ccc2c(c1)CCC21CCN(CCO)CC1", "Mtb cholesterol medium": 3.909, "Mtb glucose medium": "6.449 and 1.678"}
{"smiles": "CN(Cc1cnn(C)c1)C(=O)NC1CCN(c2ncccn2)CC1", "Mtb cholesterol medium": -25.73, "Mtb glucose medium": -33.89}
{"smiles": "O=C(c1cn(-c2ccccc2C(F)(F)F)nn1)N1CCSCC1", "Mtb cholesterol medium": -1.59, "Mtb glucose medium": -11.36}

Some entries from above, unchanged:

SMILES,Mtb cholesterol medium,Mtb glucose medium
CC(C)(C)CN[C@@H]1CO[C@H](CNC(=O)c2ccncc2)[C@H]1O,10.15,-3.054 and 8.035
COCC(=O)N1Cc2nccn2CC(Cn2ncccc2=O)C1 (stereo unspecified),-33.62,-28
CO[C@@]1(C)C[C@@H](O)C12CCN(C(=O)c1ccccc1C(C)=O)CC2,0.05523,-13.8
NC(=O)CN1CCN(CC2CC2)c2ccccc21,9.224,2.709